Experimental data reported in publication doi:10.1101/2022.01.04.474980.
No constants are given. Whether binding was seen depends on the method and setting. Binding seen in cells or lysates may run through a third protein. Some binding calls cover weakened binding; strength is not graded here. Tags and fused reporters may be left off the sequences shown.

Tests used:
Test in all cases: co-IP
[1] = molecular target: T1, FRQ^RR/AA (RR783AA), VHF-tagged (N. crassa) (UniProt P19970)
T1 sequence: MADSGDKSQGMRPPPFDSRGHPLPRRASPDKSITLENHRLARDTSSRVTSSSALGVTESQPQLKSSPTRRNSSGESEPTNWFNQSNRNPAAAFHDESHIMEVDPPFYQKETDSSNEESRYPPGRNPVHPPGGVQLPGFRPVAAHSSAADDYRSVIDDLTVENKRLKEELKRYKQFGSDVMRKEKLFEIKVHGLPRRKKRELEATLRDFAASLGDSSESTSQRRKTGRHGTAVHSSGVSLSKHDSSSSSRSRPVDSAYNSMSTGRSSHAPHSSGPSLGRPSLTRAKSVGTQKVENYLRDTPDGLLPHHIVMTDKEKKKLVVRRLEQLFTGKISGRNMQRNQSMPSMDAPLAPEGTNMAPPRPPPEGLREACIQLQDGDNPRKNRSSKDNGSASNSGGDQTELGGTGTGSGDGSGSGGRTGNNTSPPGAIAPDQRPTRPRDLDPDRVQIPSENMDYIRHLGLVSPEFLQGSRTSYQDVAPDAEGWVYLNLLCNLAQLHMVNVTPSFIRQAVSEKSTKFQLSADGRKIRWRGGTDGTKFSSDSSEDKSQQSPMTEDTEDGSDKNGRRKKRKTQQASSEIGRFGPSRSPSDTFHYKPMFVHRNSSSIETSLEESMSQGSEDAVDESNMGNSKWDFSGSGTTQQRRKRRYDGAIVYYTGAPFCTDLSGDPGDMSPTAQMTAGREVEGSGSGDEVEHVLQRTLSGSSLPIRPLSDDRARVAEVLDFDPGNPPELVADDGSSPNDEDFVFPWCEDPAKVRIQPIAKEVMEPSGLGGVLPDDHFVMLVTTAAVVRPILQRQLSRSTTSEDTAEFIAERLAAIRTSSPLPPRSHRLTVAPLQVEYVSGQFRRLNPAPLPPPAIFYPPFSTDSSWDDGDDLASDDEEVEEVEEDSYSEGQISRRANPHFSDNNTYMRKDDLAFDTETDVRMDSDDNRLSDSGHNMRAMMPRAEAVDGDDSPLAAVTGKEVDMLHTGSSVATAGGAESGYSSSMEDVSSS

[2] = molecular target: T2, FRQ^RR/HH (RR783HH), VHF-tagged (N. crassa) (UniProt P19970)
T2 sequence: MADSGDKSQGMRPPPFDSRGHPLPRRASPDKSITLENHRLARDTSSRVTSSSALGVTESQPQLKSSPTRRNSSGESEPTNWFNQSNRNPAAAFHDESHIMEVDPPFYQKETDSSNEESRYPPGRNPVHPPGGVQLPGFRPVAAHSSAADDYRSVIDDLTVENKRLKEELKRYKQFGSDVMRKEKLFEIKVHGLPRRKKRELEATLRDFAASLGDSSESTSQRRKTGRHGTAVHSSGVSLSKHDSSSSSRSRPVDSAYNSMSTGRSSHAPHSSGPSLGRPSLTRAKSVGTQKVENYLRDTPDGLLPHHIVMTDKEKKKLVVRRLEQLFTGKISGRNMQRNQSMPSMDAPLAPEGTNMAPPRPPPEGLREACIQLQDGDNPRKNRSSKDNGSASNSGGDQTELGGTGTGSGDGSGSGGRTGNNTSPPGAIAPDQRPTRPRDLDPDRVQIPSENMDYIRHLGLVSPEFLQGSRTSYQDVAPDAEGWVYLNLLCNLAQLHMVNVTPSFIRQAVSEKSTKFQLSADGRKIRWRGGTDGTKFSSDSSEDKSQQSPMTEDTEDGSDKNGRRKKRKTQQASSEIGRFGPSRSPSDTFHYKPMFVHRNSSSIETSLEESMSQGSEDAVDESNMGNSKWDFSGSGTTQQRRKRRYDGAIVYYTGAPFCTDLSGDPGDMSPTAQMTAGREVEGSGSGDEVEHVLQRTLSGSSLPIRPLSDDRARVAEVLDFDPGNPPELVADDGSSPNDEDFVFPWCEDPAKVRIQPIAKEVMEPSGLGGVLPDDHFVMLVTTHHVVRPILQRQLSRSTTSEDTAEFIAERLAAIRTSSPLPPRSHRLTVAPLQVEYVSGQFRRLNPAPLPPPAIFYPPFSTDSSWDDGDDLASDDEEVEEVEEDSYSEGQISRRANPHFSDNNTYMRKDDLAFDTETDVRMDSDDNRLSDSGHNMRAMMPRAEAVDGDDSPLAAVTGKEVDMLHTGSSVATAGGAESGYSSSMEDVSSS

[3] = molecular target: T3, FRQ^VHF (VHF-tagged wild-type FREQUENCY) (N. crassa) (UniProt P19970)
T3 sequence: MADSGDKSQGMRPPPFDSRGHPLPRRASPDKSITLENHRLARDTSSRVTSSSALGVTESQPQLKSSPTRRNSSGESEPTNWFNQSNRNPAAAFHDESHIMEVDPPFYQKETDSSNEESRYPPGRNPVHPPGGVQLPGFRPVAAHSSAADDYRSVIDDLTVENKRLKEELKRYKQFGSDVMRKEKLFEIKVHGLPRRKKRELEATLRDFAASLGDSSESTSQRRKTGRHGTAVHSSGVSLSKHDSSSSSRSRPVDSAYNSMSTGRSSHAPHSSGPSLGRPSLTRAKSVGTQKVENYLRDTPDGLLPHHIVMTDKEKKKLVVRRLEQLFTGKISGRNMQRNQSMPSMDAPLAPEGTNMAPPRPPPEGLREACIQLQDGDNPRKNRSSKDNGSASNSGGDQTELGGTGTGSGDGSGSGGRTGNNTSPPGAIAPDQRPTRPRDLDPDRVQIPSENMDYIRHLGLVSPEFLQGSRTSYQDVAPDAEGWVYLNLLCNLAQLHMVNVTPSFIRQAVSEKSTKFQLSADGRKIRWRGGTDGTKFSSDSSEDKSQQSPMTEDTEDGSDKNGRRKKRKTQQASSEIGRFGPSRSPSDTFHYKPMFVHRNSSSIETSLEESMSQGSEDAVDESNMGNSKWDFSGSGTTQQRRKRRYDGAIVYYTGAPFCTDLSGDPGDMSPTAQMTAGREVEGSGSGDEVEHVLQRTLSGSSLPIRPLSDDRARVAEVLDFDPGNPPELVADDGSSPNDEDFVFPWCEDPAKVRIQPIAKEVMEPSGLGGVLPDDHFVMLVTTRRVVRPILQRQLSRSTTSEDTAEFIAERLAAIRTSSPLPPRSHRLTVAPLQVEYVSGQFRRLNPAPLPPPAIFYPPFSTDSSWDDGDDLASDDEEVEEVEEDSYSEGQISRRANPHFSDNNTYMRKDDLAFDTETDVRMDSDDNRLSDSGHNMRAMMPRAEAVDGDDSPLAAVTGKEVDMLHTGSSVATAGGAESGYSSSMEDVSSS

binding [1]: no binding
binding [2]: binds
binding [3]: binds
B1: FRQ-interacting RNA Helicase (FRH), endogenous in N. crassa (protein, UniProt Q1K502 1-1106)
chain: MDDLFEVFEEQPRAQKKRKASPDVEMADGAAAAAPVANAAAAVTHPQAQAAPAPQKDNIDNNDNNNNNTTTSAVQPTIPNGDAAAAADDVQSPQSPHGLGDNKRRKKTDEAEPIMTDAFQTAESREVTGAQGFAPTEGESIVLSHNIQHQVALPPDLDYEYIPLSEHKPPAEPARTYSFKLDPFQALSVASIEREESVLVSAHTSAGKTVVAEYAIAQCLKKNQRVIYTSPIKALSNQKYRDFQAEFGDVGLMTGDVTINPTASCLVMTTEILRSMLYRGSEIMREVAWVVFDEIHYMRDKIRGVVWEETIILLPDKVRYVFLSATIPNAFQFAEWIAKIHRQACHVVYTDFRPTPLQNYFFPAGGKGILLIVDEKGNFKENNFNQAMAMIEEKKGTDSNDWSAKQKGKGKNKKTNKGGEAADEKADIAKIIKMILKKNFQPVIVFNFSKRECEQMALASSSMKFNAPDEENMVNKVFENALASLSEDDKNLPQISNILPLLRKGIGVHHSGLLPILKETIEILFQEGLIKVLFATETFSIGLNMPARTVVFTQVTKWDGQQRRPLTSSEYIQMAGRAGRRGLDDRGIVIMMVDDKLEPETARAIVVGNQDKLNSAFHLGYNMVLNLLRIEAISPEYMLERCFFQFQNAASVPQLERELISLQQERDAIIIPDESIVKDYYGVRQQLEEYNKDMVFVIQHPQNCLGFFQEGRLIHIKSPSGVDYGWGVLIKHIQRQTPKNGQPPYPEQESYVLDVLLKVSGDFNPKTRGEGPMPEGIMPAGKDSKNARWEVVPCLLNCLRALGQLRVFLPKRLESADEKDGVGKAVDEISRRFPDGIPILDPMENMGINDDSFKKLLRKIEVLESRLVANPLHNSPLLVELWNQYSLKMQLGEQIKEKKKAIARAHSVAQLDELKSRKRVLRRLGFINDAEVVQMKARVACEISSTEGHELLLAELLFNRFFNELSPEICACILSCFIFDEKIETQALKEELAKPFREIQAQARIIAKVSAESKLDVNEDEYVQSLKWQLMETVLAWAQGRPFSEICKMTNVYEGSLIRLFRRLEELLRQMAEAARVMGSEELKDKFELSLSKIRRDIVSFNSLYL
